The record followed here is paper PMC7340582.

No constants are given. Whether binding was seen depends on the method and setting. In cells and extracts the contact can be indirect. These calls come from enrichment with a bait or labelling near it, and not all partners need be listed.

The target in the assay is NDC80–GFP (Plasmodium berghei). Nature of the assay: affinity purification with mass spectrometry; GFP-Trap_A beads on formaldehyde-crosslinked (1%, 10 min) lysates of NDC80–GFP or GFP-only schizonts (8 h in culture) and gametocytes (1 min post-activation); on-bead trypsin digest, LC-MS/MS.

B1: PBANKA_1442300, candidate SPC24 orthologue (protein, UniProt A0A509B0W6 1-819)
chain: MNYFSGKPKTKATELNNENKGVKFLNRAKNNFNGINKNTTNTQFSSFGQKNTLIRNTNFKLRTNNNTFKPPPRGIIKSSQNALHKNAQIDSNKQSHNELRNGSKNVSLANTRSIENNSNNNTTKPYLNRPIIHTNIKKYVSDDNNVMKNTNKNNIKNNRNSRFYNSENNEMNNNKDDNINNSESILYTYTSPIKRKYEAVNNTNQNTENDNNKMNTLNKKYAQRNYYFDNNLPTYYNNKVNNENSNSNNINENANNYNNFYSNEKLFNNNNTLDVSYITFKTGSNIDAANEVNINNNANNSIKSHSLARNYDKQKNGDNILNNSNCEPNYKYYYLEQNGQHNLDIHINKNLYTNDNPKNGNCNNLPYHLNSNILRSKEIRESKYLADTHSEKMMNSTNNNDVFNTCTIDRLSEENFNSYVKRKSHNKNTFSGINNLDDITRNHMTDNNNNNNRNESNNSKNFHNLNMDNEDNQLKNITNNQDTSLKNSIIGSNIVDFKNISMVIPISEGNLLSHKSENGSVKNRRSSSHNNMNANSVHTFQDDASYFNKYRDMNNMQQYIKKNDNRNKKIMNRYNIDTYINNDNDYLYFRNIINNITKYNSGESDIDDLCKTVMNINDYSLNFDGENEGINEIIDITNNVNNNIINIQQAIYNKKKIVQDKRNVINEEYEIISQKLKDCESIFCDTNDETGEKKLKVFYEIDEKKNILKNKYQVKKMLLKKAQYKIDKLQEYTDAIKLKTMAISKKYKRTYLLIEELFRLKIIKDNENELEICLIPKNTETNMWHRLQLDKKEITPEACDYLWSQIESFVDKETFDNYF
With B1, the binding entry is reported as “binds”.
